Growth estimate data for 80 substances are collected here from the supplement of paper PMC5949888.

± gives the standard deviation of the averaged measurements. Most values lie at the floor of the assay. Slopes are relative: functional sequences can read slightly below zero.

The test system of the data set is Saccharomyces cerevisiae PS128 hsf1 delta, HSF1(1-493) fusion. Kind of data set: growth estimate (transactivation domain function in HSF1 fusion, heat-shock survival) (a.u. (slope of normalised read count over time)); higher = stronger growth at 37°C, i.e. more transactivation activity. The settings on record: library: random library.
For PMGARDYNKL, the growth estimate is less than -0.25.
In the case of RADNC, the growth estimate is less than -0.25.
For GSNRDTKRWLP the value was less than -0.25; for QSRIRLVFGLDSAV, less than -0.25; for RCTRFGVNRW, less than -0.25.
Next, IQLGPNRTMYYRDLQQGKVT: less than -0.25; QVSKPPTVPRSDSSLCSFTR: less than -0.25; RVLTLGRSPARSPTVGGIKQ: less than -0.25.
Turning to LLSLYDTRGLQCICAWPISS, the growth estimate is less than -0.25.
With TALNHTCVGKR, the growth estimate was less than -0.25.
For the substance LDTCRTTSESGTWTLVP, the growth estimate was less than -0.25.
Turning to RGK, the growth estimate was less than -0.25.
NGLWVPRGTTNTPPLAWRLW: the growth estimate is less than -0.25.
DKRRGPLRKR: the growth estimate is less than -0.25.
For RNSIYW the value was less than -0.25; for VGFKSGGPCWTAITSLPCSC, less than -0.25; for ITMR, less than -0.25.
Regarding TWGLEPLV, the growth estimate is less than -0.25.
For VVDITIA the value was less than -0.25; for CNYAKYLGTNT, less than -0.25; for WMRRRM, less than -0.25.
On to SHHLLRYCDLDARIWAHGGL, for which the growth estimate was less than -0.25.
In the case of RGRFSAVWTVVTEGSNLSRL, the growth estimate is less than -0.25.
RKSTHGQHDAGLKFLKYSRL: the growth estimate is less than -0.25.
Next, AITGPSGQGYRRNRKSHNAV: less than -0.25; VGLQF: less than -0.25.
As to GCGQLAALPRTTR, the growth estimate is less than -0.25.
For VKRDRFDSRAWQHIHVPHHS the value was less than -0.25.
As for VPGKRHCRLGHDLGVNHSDR, the growth estimate is less than -0.25.
For TPGVQVPGPEFW, the growth estimate was less than -0.25.
Next, GPGQFINGK: less than -0.25.
In the case of LVM, the growth estimate was less than -0.25.
In the case of CSRLAEKSSQPI, the growth estimate is less than -0.25.
As for SHGVLQPWHLHSNALD, the growth estimate was less than -0.25.
For YTCSGRWVSNVMIGL the value was less than -0.25.
Regarding LCFTRQGSGRSPKVGSQTSA, the growth estimate was less than -0.25.
Next, TWIVRTGFSVIRPRARVMES: less than -0.25; ADVTLPHYLQ: less than -0.25; KSKDAG: less than -0.25.
Regarding RSVNNVRATSTL, the growth estimate was less than -0.25.
In the case of SRYAFSVKCMTGNCVRKLMS, the growth estimate was less than -0.25.
Next, YQTTNLRRTAVGPRGVWLQS: less than -0.25.
For the substance MSVNM, the growth estimate is less than -0.25.
FNPLLPRMGGIQSIITANSP: the growth estimate is less than -0.25.
For the substance RAGTECRIFTLVKARIGSGP, the growth estimate was less than -0.25.
Turning to GVRV, the growth estimate was -0.204 ± 0.065.
With ARTEVRPHA, the growth estimate is less than -0.25.
On to LSHP, for which the growth estimate was less than -0.25.
Next, YTPGPDISSTARDENNTVLS: less than -0.25; IDRTPWPNVAGPRPPRCVYQ: less than -0.25; GGGESACGPETRWLAVSVVR: less than -0.25.
Take RSLVHWD: the growth estimate is less than -0.25.
With ASRGEEARQATDLE, the growth estimate is less than -0.25.
On to TEGGQHSRWNVRKLPNRKDA, for which the growth estimate is less than -0.25.
As for VCLKQRRTTGLGIHMALIRC, the growth estimate is less than -0.25.
Turning to AQILE, the growth estimate was less than -0.25.
Turning to SLSDPAVGVVRLRAQCSIYH, the growth estimate is less than -0.25.
For INGAYVRPRGGLSERFT the value was less than -0.25; for TRYGTLVVYEVKLGWEAIGV, less than -0.25; for RCISRIYQYSCPLSTPVGGL, less than -0.25.
Consider VPHHPELTRI, for which the growth estimate was less than -0.25.
With TLNPRSRRPSIGIAFKNGVL, the growth estimate was less than -0.25.
On to IFVANWQVVLFARVSGIHAL, for which the growth estimate is less than -0.25.
Consider SNQASNSYPTEVC, for which the growth estimate was less than -0.25.
Next, VSNGWRGWTSIAKGSLSYCL: less than -0.25; HPWPALEDSIHVLFSRRFEV: less than -0.25.
On to RLGGQRAIPTGSVAPTVYA, for which the growth estimate was less than -0.25.
For CAT the value was less than -0.25; for IQYPSLPQFHCH, less than -0.25.
In the case of VMPSPDVSFLLRIRGSEGFI, the growth estimate is less than -0.25.
With PVIHLDQVDAVRRRLVGRDT, the growth estimate is less than -0.25.
For AWHRRGGKVTLEE the value was less than -0.25; for TVLVRGLPAIPSPGVKSCSK, less than -0.25.
On to LDHLFV, for which the growth estimate is less than -0.25.
For SGHIDFCHDANAYGL, the growth estimate was less than -0.25.
FHVICLLI: the growth estimate was less than -0.25.
Take GNI: the growth estimate is less than -0.25.
On to RVFRCVLAVVIVPSSC, for which the growth estimate was less than -0.25.
For SHADICDCHQRAKNLQTRL, the growth estimate is -0.246.
In the case of LVTCHIHCAYGEAAGWHGYH, the growth estimate is less than -0.25.
